Consider 61 compounds from PubChem BioAssay AID493014 (National Center for Advancing Translational Sciences (NCATS), 2011).

Some of the results follow. These are further read-outs of the screen, such as a control signal, another cell line or another target. No call is given for them. Most of these compounds were active or inconclusive in the main read-out, so they are no random draw. The note in brackets gives the kind of curve behind each potency; many fits are weak.

The assay can be described thus: qHTS Assay to Find Inhibitors of Chronic Active B-Cell Receptor Signaling. To be noted: ABC-DLBCL IkBa-CBG/CBR reporter, luminescence ratio (green luciferase fused to IkBa over red control in TMD8 lymphoma cells), 4 h. In a few lines:
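Doxycycline induced both beetle luciferases in TMD8 lymphoma cells; IKK-driven degradation limits the IkappaBalpha-fused green signal, while red luminescence normalises for cell number and nonspecific effects. Compounds tested up to 46 uM, 4 hrs.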

Setting [1] is: measured here: CBR red luminescence, cell number.
[2] abbreviates: measured here: IkBa-CBG green luminescence.

Regarding `COc1ccccc1CC(=O)Nc1cccc2ccccc12`, under setting [1], the half-maximal activity concentration (AC50) is 14.1 µM [rising, partial curve, poor fit]. Still for that read-out and setting: the value for `CCCc1cc(C(=O)Nc2ccc(Cl)cn2)cs1` was 17.8 µM [falling, single point]; that for `COC(=O)c1sc(S(=O)(=O)Nc2ccc(Br)cc2)c(C(=O)OC)c1C` was 6.51 µM [rising, single point]. Still for that read-out and setting: the value for `CCC1CO/C(=C(\C(=C(Cl)Cl)N2CCOCC2)[N+](=O)[O-])N1` (stereo not drawn) was 1.12 µM [rising, full curve, poor fit]; that for `CCN(CC)CCNC(=O)Cc1nn(Cc2ccccc2)c(=O)c2ccccc12` was 3.16 µM [rising, single point]; that for `CCOC(=O)c1ccc(NC(=S)N2CCCC2)cc1` was 14.1 µM [rising, single point]. Take `COc1ccc(/C=N/OCC(=O)Nc2nc3ccccc3s2)cc1`: the AC50 under setting [1] is 29.1 µM [falling, single point]. Same read-out and setting: the value for `Cc1ccccc1CSc1nc2c(sc3ccccc32)c(=O)n1CCCOC(C)C` was 4.47 µM [rising, full curve, poor fit]. As for `COc1ccc(C(=O)N/N=C/c2ccc(OC)c(COc3ccc(F)cc3)c2)cc1`, the AC50 was 4.47 µM [falling, partial curve, poor fit] under setting [1] and 12.6 µM [rising, partial curve, poor fit] under setting [2].

On to `Cc1cc(Cl)nc2ccc(Cc3ccc4nc(Cl)cc(C)c4c3)cc12`, for which the AC50 under setting [1] is 35.5 µM [rising, single point]. The same measure, in the same setting: the value for `Cc1cc(C)nc(SCC(=O)Nc2nc(-c3ccccc3)c(-c3ccccc3)o2)n1` was 2.31 µM [falling, partial curve]. With `C/[N+]([O-])=C\C1C(=O)CC(C)(C)CC1=O`, the AC50 was 15.8 µM [rising, single point] under setting [1] and 12.6 µM [falling, partial curve, poor fit] under setting [2]. Consider `COc1ccc(N(C)S(=O)(=O)c2cccc(C(=O)N3CCN(c4ccccc4)CC3)c2)cc1`, for which the AC50 under setting [1] is 4.11 µM [falling, partial curve, poor fit]. With `COc1ccc(C(CC(=O)c2ccccc2)S(=O)(=O)c2ccccc2)cc1` (stereo not drawn), the AC50 under setting [1] was 8.2 µM [rising, partial curve]. `CCOc1ccccc1N=Nc1c(C)[nH]n(C(N)=S)c1=O`: under setting [2], the AC50 was 5.62 µM [falling, single point]. Take `CCc1ccc(Nc2ncnc3c2cnn3-c2cc(Cl)ccc2C)cc1`: the AC50 under setting [1] is 0.0891 µM [rising, full curve, poor fit]. On the same count and under the same terms, as for `CCCC1(C(=O)OCC)NC(c2ccc(N(C)C)cc2)C2C(=O)N(c3ccc4c(c3)OCCO4)C(=O)C21` (stereo not drawn), the figure is 0.651 µM [rising, full curve, poor fit]. On the same count and under the same terms, the value for `CCCCCCCCCS(=O)(=O)N/N=C/c1cccc([N+](=O)[O-])c1` was 0.00411 µM [falling, full curve, poor fit]; that for `CCSc1nnc(N(CCC#N)CCC#N)s1` was 11.2 µM [falling, partial curve, poor fit]. Same read-out and setting: as for `Cc1ccc2c(c1)c1c3n2CCCNC3CCC1` (stereo not drawn), the figure is 15.8 µM [falling, single point]; as for `COc1ccc(S(=O)(=O)N(C)C)cc1NC(=O)CCCSc1ccccc1`, 0.398 µM [rising, full curve, poor fit].

`COc1ccccc1NC(=O)C(=O)N1N=C(C(C)C)CC1(O)C(F)(F)F` (stereo not drawn): the AC50 under setting [1] was 7.94 µM [falling, partial curve].

For `Nc1c(-c2nc(-c3cccs3)no2)nnn1-c1cccc(Cl)c1`, the AC50 under setting [1] was 0.1 µM [rising, full curve, poor fit].

With `CC[C@@]1(c2ccccc2OC)ON(c2ccccc2C(F)(F)F)C1=O`, the AC50 under setting [1] was 23.1 µM [falling, partial curve] and the AC50 under setting [2] was 8.2 µM [rising, partial curve, poor fit]. On to `CC1=NN(c2ccccc2)C(=O)/C1=C/C=C/C=C/N(C)C`, for which the AC50 is 2.82 µM [rising, partial curve, poor fit] under setting [1] and 8.91 µM [rising, partial curve, poor fit] under setting [2]. Turning to `CC(=O)Oc1ccc(/C=N/NC2=NS(=O)(=O)c3ccccc32)cc1`, the AC50 under setting [1] is 8.91 µM [rising, partial curve, poor fit].

With `COC(=O)c1ccccc1NC(=O)CCS(=O)(=O)c1ccc(Br)cc1`, the half-maximal activity concentration (AC50) under setting [1] is 35.5 µM [falling, partial curve, poor fit]. Still for that read-out and setting: as for `CCCCCc1nc2c(=O)n(C)c3ccccc3c2o1`, the figure is 31.6 µM [falling, single point]; as for `Cc1ccc(S(=O)(=O)Nc2ccccc2C(=O)NCc2cccnc2)cc1`, 11.2 µM [rising, partial curve]. With `O=C(O)c1nnn(-c2ccc(F)cc2F)c1-c1ccccc1`, under setting [1], the AC50 was 0.708 µM [rising, full curve, poor fit]. Same read-out and setting: as for `O=C(Nc1ccc(C2CC2(Cl)Cl)cc1)c1ccccc1Br` (stereo not drawn), the figure is 1.46 µM [falling, partial curve]. For the compound `CCOC(=O)C1=C(Cc2ccc(OC)cc2)C(=O)c2ccccc2C1=O`, the AC50 under setting [1] was 29.1 µM [rising, single point] and the AC50 under setting [2] is 29.1 µM [falling, single point]. Turning to `COc1ccc(CNC(=O)c2cnc3scc(C)n3c2=O)cc1`, the AC50 under setting [1] is 2.91 µM [rising, single point]. The same measure, in the same setting: as for `COc1ccc(-c2ncncc2-c2ccccc2)c(O)c1`, the figure is 5.62 µM [falling, single point]; as for `O=C(Nc1ccccc1)Nc1nnc(Cc2ccccc2F)s1`, 35.5 µM [rising, single point]. On the same count and under the same terms, as for `Cc1ccc(S(=O)(=O)N(CC(=O)Nc2cccnc2)c2ccccc2C)cc1`, the figure is 6.31 µM [falling, single point]; as for `CS(=O)(=O)N1CCN(c2nc3ccc(Cl)cc3s2)CC1`, 0.282 µM [rising, partial curve, poor fit]; as for `Cc1ccc(CNC(=O)C2CC(c3ccc(C(F)(F)F)cc3)=NO2)o1` (stereo not drawn), 1.78 µM [falling, full curve, poor fit]. On the same count and under the same terms, as for `CN1CCN(S(=O)(=O)c2ccc(-c3ccc(Cl)cc3)cc2)CC1`, the figure is 0.0517 µM [falling, full curve, poor fit]; as for `CCc1ccc(C(=O)NCc2cccs2)s1`, 6.51 µM [rising, single point]; as for `Cc1sc(NC(=O)c2ccco2)nc1-c1ccccc1`, 13 µM [falling, single point].

As for `COc1ccccc1CNC(=O)C1CCN(S(=O)(=O)c2ccc3c(c2)CC(C)N3C(C)=O)CC1` (stereo not drawn), the AC50 under setting [1] was 22.4 µM [rising, single point].

`C=CCC[C@H](Cc1ccc(F)cc1)C(=O)OC[C@@H](Cc1c[nH]c2ccccc12)NC(=O)[C@@H](CC=C)CC(=O)N[C@H](CO)Cc1ccccc1`: the AC50 under setting [2] is 25.9 µM [rising, partial curve, poor fit].

As to `O=C(Nc1nccs1)c1ccc(-c2cccc([N+](=O)[O-])c2)o1`, the AC50 under setting [1] is 5.62 µM [falling, single point]. Still for that read-out and setting: as for `Cc1ccccc1NC(=O)Cn1c(O)c(N=NC(=O)c2ccccc2O)c2ccccc21`, the figure is 0.92 µM [falling, full curve]; as for `Cc1ccc(-n2nc(C)c3c2NC2=C(C(=O)CC(C)(C)C2)C3c2ccccc2OCC(=O)O)cc1` (stereo not drawn), 17.8 µM [falling, single point].

With `Cc1nc2sccn2c(=O)c1S(=O)(=O)NCCc1ccccc1`, the AC50 under setting [1] was 12.6 µM [falling, partial curve, poor fit]. Turning to `Cc1ccc(NS(=O)(=O)c2ccc(N3CCN(c4ccc(O)cc4)CC3)c([N+](=O)[O-])c2)c(C)c1`, the AC50 runs as follows: under setting [1], 13 µM [falling, partial curve, poor fit]; under setting [2], 16.4 µM [rising, partial curve, poor fit]. Consider `Cc1ccccc1NC(=S)/C(=C(\[O-])c1cc(C)n(Cc2ccccc2Cl)c1C)[n+]1ccccc1`, for which, under setting [1], the AC50 was 1.26 µM [falling, partial curve]. Same read-out and setting: as for `Cc1cccc(C2Nc3ccccc3C(=O)N2c2ccccc2)n1` (stereo not drawn), the figure is 0.366 µM [falling, full curve]; as for `CCCCc1nc2cc(C(=O)N3CCN(c4nc(C)cnc4C)CC3)ccc2o1`, 6.31 µM [rising, single point]; as for `CCOC(=O)C1CCN(C(=O)COC(=O)c2c(C)c(CC)nc3ccccc23)CC1`, 10.3 µM [falling, single point]. Still for that read-out and setting: the value for `C[C@H]1CCC(=O)N(CCSc2ccc(Br)cc2)CC1` was 3.66 µM [rising, full curve, poor fit]. Same read-out and setting: the value for `CCn1c(SCc2cccc(F)c2)nnc1-c1ccncc1` was 35.5 µM [falling, single point]; that for `Oc1csc(Cc2nc(-c3ccccc3F)cs2)n1` was 0.2 µM [falling, full curve, poor fit]. With `O=C(NC(NC(=S)Nc1c(Cl)cccc1Cl)C(Cl)(Cl)Cl)OCc1ccccc1` (stereo not drawn), the AC50 reads like this: under setting [1], 29.1 µM [falling, single point]; under setting [2], 23.1 µM [rising, partial curve, poor fit].

For `CC1Cc2ccccc2N1C(=O)CSc1ccccc1` (stereo not drawn), under setting [1], the AC50 is 0.112 µM [rising, full curve, poor fit]. Still for that read-out and setting: the value for `C=CCOc1ccc(CNn2cn[nH]c2=S)cc1OCC` was 3.55 µM [falling, partial curve, poor fit]; that for `c1ccc2c(N3CCCCC3)nc(N3CCCC3)nc2c1` was 18.4 µM [rising, single point]; that for `O=c1oc2cc(OCCO)ccc2c2c1CCCC2` was 25.1 µM [rising, single point]. Still for that read-out and setting: as for `COc1ccc(S(=O)(=O)NCC(=O)N(CC(=O)NCC2CCCO2)c2ccccc2C)cc1` (stereo not drawn), the figure is 7.31 µM [rising, partial curve, poor fit].
